Measured values as given in PubChem BioAssay AID1347426 (Functional Genomics Laboratory (NCATS/FGL), 2020).
About 1,400 (4.5%) of roughly 31,000 sequences were called active.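 How the source made its calls: active means median seed-adjusted z-score above 1 or below -1; inactive means the rest.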 The list shows a part of the results.

Test: Novel Modifiers of Survival Motor Neuron (SMN) Protein: Gene Identification via Genome-wide siRNA Screen;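 further: luminescence tracks full-length SMN protein made from the SMN2 reporter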
Conditions: HEK293T SMN2-luciferase reporter, siRNA knockdown, 72 h; actives lie on both sides
Summary of the method: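 Each of three siRNAs per gene is reverse-transfected (1 pmol) into reporter HEK293T cells whose luciferase output tracks SMN protein level. After 72 h culture, ONE-Glo luminescence is control-normalized, log10-transformed and MAD-standardized; Common Seed Analysis deprioritizes seed-driven hits.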

Sequence | median seed-adjusted z-score
AGGAGUUCAUCAUGCUGAUTT against S100A9 | inactive: -0.0953
GCAGCAUACAGGAAUACCATT against ATRNL1 | inactive: -0.142
GCCUCGUGACUUUCGAAGATT against PHF19 | inactive: -0.195
GACACCUUCUUAGACGAUATT against AMPD1 | inactive: 0.378
GGACUGAGAGGCAAGAGUUTT against HLA-A | inactive: 0.189
CAUUAUUGCAUGCAUAGAATT against CAPZA2 | inactive: 0
CCGUAUCUGUCACAAUAAATT against CST6 | inactive: -0.237
GUCUUCUACCCAACCCUGATT against CHID1 | inactive: 0.199
CCUGAUGUCUUAUCUCAGATT against ZNF398 | inactive: 0.119
GAGUAUCCUGAAUACUUUUTT against HSD17B12 | inactive: 0.0719
GCUUAUGGUUGAUCAGUUATT against RNF7 | active: -1.18
GCAAAGCGGUUGAGGGAAATT against ISLR | inactive: 0.00807
UGAAGGCUGUUGCGCCGAATT against EGR4 | inactive: 0
CAGUGAAACUGCACCUCUATT against TGM1 | inactive: -0.286
GCACAACAGAUACUUCGUUTT against ERCC3 | inactive: 0.155
GGAACACGAUGAACCUAUUTT against NAP1L1 | inactive: 0.263
GGCCCUUACAAGAAGGUGATT against METAP1 | inactive: -0.139
GCCUCGUUUUUGGACUGAUTT against GALNAC4S-6ST | inactive: 0.218
GCACCUAUAUUUACUACUUTT against TTC3 | active: -1.17
GGAAUUAAGUCAACCACGUTT against SPAG9 | inactive: 0.0795
CCUUCACUUGAGUAGCAGATT against KLHL8 | inactive: -0.835
CGAAGAGUGAGCUAACAAATT against 6-Sep | inactive: -0.732

No new results follow: an excerpt of the list.
Sequence | median seed-adjusted z-score
AGGAGUUCAUCAUGCUGAUTT against S100A9 | inactive: -0.0953
GCAGCAUACAGGAAUACCATT against ATRNL1 | inactive: -0.142
GCCUCGUGACUUUCGAAGATT against PHF19 | inactive: -0.195
GACACCUUCUUAGACGAUATT against AMPD1 | inactive: 0.378
GGACUGAGAGGCAAGAGUUTT against HLA-A | inactive: 0.189
CAUUAUUGCAUGCAUAGAATT against CAPZA2 | inactive: 0

Carrying on:

Sequence | median seed-adjusted z-score
CGGUAGUGAUAAAAGCUCATT against TPX2 | inactive: -0.564
GCAAGGAAGAAAUUUGUGATT against ERCC1 | inactive: -0.566
CGGUGCUUCGGAUCUACUATT against CDIPT | inactive: 0.303
GCGGGACACUGUUAAUCCATT against SYTL4 | inactive: 0.694
GGAUGACAAUUUAAUUUGUTT against PAIP1 | inactive: -0.0178
AGCUGAUAGUAUCCGGCUATT against IRF5 | inactive: -0.146
CAAUAUCUACAGGAGAAAATT against PPIL6 | inactive: -0.215
GGUGAAUCACUAUUCAAUUTT against RNF128 | inactive: -0.377
CCUUGGUGCUGUAUAUCUATT against FGD1 | inactive: 0.414
GCUCAGCAAUUUUCCGGAATT against SLC2A2 | inactive: -0.498
CCAACUUUAUGUCUACUUUTT against MCART6 | inactive: 0.714
GCAUCUGAUCGAACACCUATT against ZKSCAN5 | inactive: -0.229
GGCUAUGAGGGUUCUCUUATT against RBPMS | inactive: 0
GCAAGUAGAUAACAAGUUUTT against MLH3 | inactive: 0.228
GAACGAGAGUAUGAGAAGATT against PLXNB2 | inactive: -0.237
GAAGGACCCGGUGAAGAAATT against HNRNPAB | inactive: -0.631
GAACAUAUAGAAAUCCUUATT against MCTS1 | inactive: 0.116
UCAGAUCUUUGGACGCAAATT against ECSIT | inactive: -0.116
GGACUAAGAGUCAAAAGAATT against CLEC4C | inactive: 0.664
CCAAGAUGCUCAUAUAACATT against SYT14 | inactive: 0.0794
GUCUUUUGAUUACAACUAUTT against FUSIP1 | inactive: 0.865
GGAGGACAAAUAUGAAGAATT against TPM4 | inactive: -0.407

Sequence | median seed-adjusted z-score
GGUCCAAUCUCAGGGCAAATT against DIS3L | inactive: 0
GCAUAUUCCAAACUAGUGATT against STARD6 | inactive: 0.0605
CGAUGAUGACAAAAGACGATT against GUCY2C | inactive: -0.0181
GAUGAUGAAUUGUACUCUATT against SBF2 | inactive: 0.569
GAAGUUCACUUUCGAGUUATT against MYOZ3 | inactive: 0.16
GAGAGAUUCUUAAAGAGCUTT against RDH16 | inactive: 0.421
GGAAUUUUCAUCUAGGAUUTT against ASGR1 | inactive: -0.128
GCUUUAGUCUAGCAAGUCUTT against NIPA2 | inactive: -0.103
CAGUGAGCAUUGAACGGUUTT against ADAMTS6 | inactive: 0.023
CAUCAUCAUUCUUAUCCUUTT against STX7 | inactive: 0.251
ACAGCGACGCCAAGACAGATT against CLIC3 | inactive: 0
CGAAAAUCACAGUUAUCAATT against CDON | inactive: 0.777
CAACUUCAGAUAUAUACUUTT against RGS17 | inactive: -0.627
GGAACACCCUGACACGAAATT against KIF14 | inactive: 0
CAUCCUCAUUUGAAACCGUTT against CREBL1 | inactive: -0.348
GCUCAUUGUACAUCUCAGATT against ZNF26 | inactive: 0
GAACCGGGAAGAAAACCUATT against MICAL1 | inactive: 0.31
GACGAGACCUAGAACCGAATT against SCRT1 | inactive: -0.483
GGAAUAACCGAGAUAAAGATT against BNC2 | inactive: -0.0556
AAUGCUGAGUUAAAGCCAATT against SPINK6 | inactive: 0.275
AGACCAAGAGCGCAUCAAATT against JUNB | inactive: -0.224
AGACCAAGCCGUUCCCUGATT against RUNX3 | inactive: -0.489

Sequence | median seed-adjusted z-score
GCGUGAUCCUGGACUAUGATT against EPHB2 | inactive: -0.325
CACCGAGGGUUUUACUGCATT against PPAP2B | inactive: 0
GGCCUUUAUUCUCACUACUTT against FADS6 | inactive: -0.637
GGUUAUAUACCACCUUAUATT against QRSL1 | inactive: -0.539
GGACAGUGCAAUGAUCGUATT against FBN1 | inactive: 0
GGAGAUUGUUUCACGGAAATT against TBC1D23 | inactive: 0.0932
CCACUGAAAGAGUGACUUUTT against CASP1 | inactive: -0.331
GCAGCCUUGUUGCUCUUAATT against GCN1L1 | inactive: 0.0513
CAAGCAAGGAUGACACGUATT against MKX | inactive: 0.00623
CCAAACUGGUGACCGACUATT against HBS1L | inactive: -0.509
GAAUAUUACAGACCAUUUUTT against SMA4 | inactive: 0.291
CCCUUGAACUCUACAAGAATT against CKM | inactive: -0.189
GGAAUCUCGUGGAGUAUUATT against LRP2BP | inactive: -0.547
GCUUUACUGAGUACAUUGATT against TAF7L | inactive: -0.14
ACCUCGGACUGGUACAUGATT against SLC38A3 | inactive: -0.177
GCCUUUGCACCGUACAACATT against DTX2 | inactive: 0.0597
AGAGCGGUCUGACAGUGGATT against NUDT1 | inactive: -0.175
UAUAUGCACUUGAAAGUAUTT against CSTA | inactive: -0.351
GCCCGGUUAUUUCUGGAGATT against DGAT1 | inactive: 0.148
CGUGCUCUAUCACCUCUUUTT against PAQR4 | inactive: 0.316
GAAAGUAUUUUAGAAAGUATT against GPR88 | inactive: 0.404
GCAGUGAUCGGAAGAAACATT against ZIC5 | inactive: 0

Sequence | median seed-adjusted z-score
GGAUUCGUCCAGACUCAAATT against PRMT5 | inactive: -0.303
GACUAAAAACUUAGUUUAATT against RHCE | inactive: 0.488
CGGUCUCUGCGAUAUGAUATT against SDHA | inactive: -0.103
CCAAGAUCACGUUCAUGCATT against TTF2 | inactive: 0.282
GGACCGCUGUUUUGGAUUUTT against STX18 | inactive: -0.151
GGCUGUCAUAGACAAGUAUTT against TNN | inactive: -0.122
CCAUUGAAGUAUCACGAGATT against NR2C1 | inactive: 0.386
GCUUUGCUCUGGUGAGUGATT against P2RX7 | inactive: -0.527
AUUCAUGCAUCUCAACAAATT against PHF11 | inactive: 0.174
GGUUUAUUCCAAAAAGAAATT against GPR123 | inactive: 0
GCUAUGUCCAAACUCAUAATT against SLC46A2 | inactive: 0
GCAUAGUUUCGGUCAUCUATT against GBF1 | inactive: -0.162
CCAUAUGAGUGUACUAUCUTT against ZNF791 | inactive: 0.219
GUGGAUAAAGCAACAUUUATT against ARHGDIB | inactive: -0.549
GGACGGGAACUGCUCUUUATT against MYLK | inactive: 0.0226
GACCAGUUCAUCUCACUUATT against GALK1 | inactive: 0.315
GGCUGACCAUGUUUCGAAUTT against CLCN7 | inactive: -0.28
GCUGUAGCCUUGAUGCCUATT against INMT | inactive: 0.863
CCACCAUUAUUUCACCCGATT against UBE2I | inactive: 0.717
GAAGAGAUCUAAGUAUGUUTT against MYO7A | inactive: -0.0127
